PubChem BioAssay AID504791 | Drosophila RNAi Screening Center – 2011
In all, the deposit lists about 23,000 reagents; this is a random part of those with a known target gene and a result. Of all reagents, 199 (0.86%) are marked active. 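Plate-scaled ratios behind the calls are not deposited; printed light signals are raw; many rows marked increased or decreased are still called inactive.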 A number with no mark means an inactive call. A plus sign joins genes that one reagent is predicted to hit. Not given: the direction of the score.

- Purpose: 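Genes whose knock-down strengthens or weakens small-RNA reporter silencing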 (primary screen)
- Cell system: Drosophila S2-derived reporter cells
- Reagent: long dsRNA against Drosophila genes, about 150-250 ng dsRNA per well (siRNA assay); about 80-120 ng (miRNA assay)
- Time to read-out: about 5 days (siRNA assay); about 4 days (miRNA assay)
- Challenge: copper sulfate induction of reporters: 25 µM (siRNA assay); 200 mM stated (miRNA assay), 1-2 days before reading
- Read-out: 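Per-well ratio of Renilla over firefly light, expressed relative to that plate's average ratio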
- Call rule: 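First-pass picks had plate-scaled ratios over 1.5 for the siRNA assay, over 1.6 for the miRNA assay, or under 0.6; two distinct dsRNAs had to score alike on retest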

no.	predicted target	amplicon	stable siRNA reporter change	miRNA reporter change	stable assay Renilla, run 1 (luminescence)	stable assay firefly, run 1 (luminescence)
1	mei-W68 (meiotic W68)	DRSC07649			7419	4.22e5
2	CG15922	DRSC15128			6554	4.76e5
3	MED14 (Mediator complex subunit 14)	DRSC08235			6636	2.65e5
4	CG6424	DRSC05936			8222	2.56e5
5	yellow-e	DRSC12966			3767	3.93e5
6	yellow-e	DRSC16563			6063	3.37e5
7	CG9636	DRSC16529			8814	4.16e5
8	Cpr65Ay (Cuticular protein 65Ay)	DRSC08796			5090	4.59e5
9	CG10492	DRSC02064			1.59e5	9.67e5
10	crim (crimpled)	DRSC10573			8641	4.64e5
11	CG15831 (retired record)	DRSC20816			5559	3.53e5
12	CG14223	DRSC19580			7687	4.86e5
13	CG14932	DRSC02414			7243	4.14e5
14	CG7848	DRSC07050			5984	3.26e5
15	Syx8 (Syntaxin 8)	DRSC10402			5083	4.88e5
16	Syx8 (Syntaxin 8)	DRSC22498			4956	3.65e5
17	OS9 + Hf	DRSC03392			8019	1.77e6
18	TpnC25D (Troponin C at 25D)	DRSC02965			7895	3.37e5
19	Mat89Ba (Maternal transcript 89Ba)	DRSC14540			7235	3.18e5
20	Dgat2 (Diacylglycerol O-acyltransferase 2)	DRSC06803			7319	4.06e5
21	Hsc70-1 (Heat shock protein 70 cognate 1)	DRSC11185			8752	7.75e5
22	imd (immune deficiency)	DRSC05928			12220	5.58e5
23	CG8613	DRSC07222			8014	4.60e5
24	PH4alphaSG1 (prolyl-4-hydroxylase-alpha SG1)	DRSC15080			6807	4.61e5
25	CG33189	DRSC21427			8923	4.69e5
26	CG11586	DRSC08203			3399	3.75e5
27	ida (imaginal discs arrested)	DRSC08163			6935	3.74e5
28	Ag5r2 (Antigen 5-related 2)	DRSC19328			4792	3.70e5
29	SK (small conductance calcium-activated potassium channel)	DRSC17387			4715	3.90e5
30	SK (small conductance calcium-activated potassium channel)	DRSC17751			6696	5.48e5
31	SK (small conductance calcium-activated potassium channel)	DRSC17887			5939	5.07e5
32	SK (small conductance calcium-activated potassium channel)	DRSC17888			5367	4.38e5
33	SK (small conductance calcium-activated potassium channel)	DRSC18353			8190	5.40e5
34	SK (small conductance calcium-activated potassium channel)	DRSC21840			8427	4.72e5
35	Edem1 (ER degradation enhancer, mannosidase alpha-like 1)	DRSC18573			7432	4.07e5
36	CG13690	DRSC00359			8059	4.43e5
37	heph (hephaestus)	DRSC14082			7266	4.00e5
38	heph (hephaestus)	DRSC14085			6738	2.48e5
39	heph (hephaestus)	DRSC15436			5058	2.41e5
40	heph (hephaestus)	DRSC16783			5011	3.64e5
41	CG4374	DRSC15570			6727	3.07e5
42	CG14194	DRSC19549			6416	4.70e5
43	knk (knickkopf)	DRSC15993			6903	3.33e5

Continued (3 carried over from the part before).
no.	predicted target	amplicon	stable siRNA reporter change	miRNA reporter change	stable assay Renilla, run 1 (luminescence)	stable assay firefly, run 1 (luminescence)
41	CG4374	DRSC15570			6727	3.07e5
42	CG14194	DRSC19549			6416	4.70e5
43	knk (knickkopf)	DRSC15993			6903	3.33e5
44	CG13073	DRSC09956		reporter ratio lowered past the hit cutoff	7722	5.10e5
45	Rcd1 (Reduction in Cnn dots 1)	DRSC07116			12766	4.71e5
46	CG16826	DRSC02527			7395	4.85e5
47	Kdm4A (Lysine demethylase 4A)	DRSC06586			7499	3.78e5
48	CG14537	DRSC02395			6538	3.35e5
49	Ets21C (Ets at 21C)	DRSC00751			7274	4.92e5
50	l(3)80Fj (lethal (3) 80Fj)	DRSC20986			4500	3.11e5
51	l(3)80Fj (lethal (3) 80Fj)	DRSC20989			7326	5.13e5
52	CG3436	DRSC00605		reporter ratio lowered past the hit cutoff	10346	7.38e5
53	Faf2 (Fas-associated factor 2)	DRSC03325			2.52e5	1.40e6
54	CG6583	DRSC02972	reporter ratio raised past the hit cutoff		9398	3.17e5
55	CG15332	DRSC18015			5084	3.15e5
56	CG10802	DRSC17762			7335	5.26e5
57	Gr39b (Gustatory receptor 39b)	DRSC01848			4628	4.20e5
58	Gr98b (Gustatory receptor 98b)	DRSC21675			8720	4.04e5
59	CG9813	DRSC16569			7384	6.10e5
60	pll (pelle)	DRSC17026			6231	3.96e5
61	CG12118	DRSC17813			7427	4.46e5
62	ACXD (Adenylyl cyclase X D)	DRSC07843			5760	3.26e5
63	side-VII (sidestep VII)	DRSC14578			8231	3.74e5
64	CecC (Cecropin C)	DRSC16606			5947	3.72e5
65	CG34050 (retired record)	DRSC09067			3384	1.74e5
66	CG12237	DRSC19449			4111	4.03e5
67	CG12237	DRSC22256			10922	8.62e5
68	CG2865	DRSC18527			6430	3.35e5
69	CG2865	DRSC18528			3407	3.46e5
70	Atac1 (Ada2a-containing complex component 1)	DRSC03155			7442	4.73e5
71	Cpr65Av (Cuticular protein 65Av)	DRSC09727			6726	4.96e5
72	cpa (capping protein alpha)	DRSC04080			1.16e5	5.15e5
73	RpL4 (Ribosomal protein L4)	DRSC16833			7426	3.26e5
74	CG13814 (retired record)	DRSC10069			8332	4.11e5
75	cyp33 (cyclophilin-33)	DRSC07600			13136	5.51e5
76	CG5866	DRSC15900			9262	3.66e5
77	CG12637	DRSC17845			6170	5.75e5
78	Cyp40 (Cyclophilin 40)	DRSC10980			7198	3.51e5
79	Ance-2	DRSC02539			7311	3.31e5
80	Arpc5 (Actin-related protein 2/3 complex, subunit 5)	DRSC00730			6260	3.16e5
81	IleRS (Isoleucyl-tRNA synthetase)	DRSC11667			9785	3.65e5
82	Tpl94D (Transition protein-like 94D)	DRSC13593			3507	3.62e5
83	bcd (bicoid)	DRSC12624			7986	3.49e5
